These results are taken from paper PMC10443802 (JCI Insight, 2023).

Counter-ions that a name gives are not always drawn.

The data set deals with OATP1B2. Kind of data set: Untargeted metabolomics of plasma and DRG, WT vs OATP1B2-deficient mice. The data set is classed as in vivo, mouse.
Setting [1] is: untargeted metabolomics, sheet "Figure 5C", WT vs OATP1B2-deficient mice.
Where [2] appears, read: untargeted metabolomics, WT vs OATP1B2-deficient mice, supplement sheet "Figure 5B" (volcano plot).
[3] abbreviates: Figure 5B source data (volcano plot), untargeted metabolomics, WT vs OATP1B2-deficient mice, log2 fold change of metabolite level.
Setting [4] is: untargeted metabolomics, WT vs OATP1B2-deficient mice, supplement sheet "Figure 5B".

For the compound `N[C@@H](CSSC[C@H](N)C(=O)NCC(=O)O)C(=O)NCC(=O)O` [cys-gly, oxidized], the Log2FoldChange under setting [1] is -0.6897. On the same count and under the same terms, then `N[C@@H](CCSC[C@H](N)C(=O)O)C(=O)O` [cystathionine], with 0.3785. Turning to `N[C@@H](CS(=O)O)C(=O)O` [cysteine sulfinic acid], under setting [2], the Log2FoldChange was 0.3674. Under setting [1], `N[C@@H](CS)C(=O)NCC(=O)O` [cysteinylglycine] returned a Log2FoldChange of 0.2388. On to `N[C@@H](CSSC[C@H](N)C(=O)O)C(=O)O` [cystine], for which the Log2FoldChange runs as follows: under setting [3], -0.4739; under setting [1], 0.263.

Turning to `Nc1cc[nH]c(=O)n1` [cytosine], under setting [2], the Log2FoldChange stood at 0.2869. For the compound `O=c1c(-c2ccc(O)cc2)coc2cc(O)ccc12` [daidzein], the Log2FoldChange (mouse, in vivo) was -1.474. For `CCCCCCCCCC(=O)O[C@H](CC(=O)[O-])C[N+](C)(C)C` [decanoylcarnitine (C10)], the Log2FoldChange under setting [2] was 0.251. `O=C1OC(C(O)CO)C(=O)C1=O` (stereo not drawn) [dehydroascorbate] had a Log2FoldChange under setting [1] of 0.1375. Take `C[N+](C)(C)CCCC(=O)[O-]` [deoxycarnitine]: the Log2FoldChange is -0.2345 under setting [3] and -0.1047 under setting [1]. In turn, `CC(CCC(=O)O)C1CCC2C3CCC4CC(O)CCC4(C)C3CC(OS(=O)(=O)O)C12C` (stereo not drawn) [deoxycholic acid 12-sulfate*] showed a Log2FoldChange (mouse, in vivo) of 0.3219. Regarding `CCCCC/C=C\C/C=C\CCCCCCCCCC(=O)O` [dihomo-linoleate (20:2n6)], the Log2FoldChange under setting [1] is 0.4436. Consider `CCCCC/C=C\C/C=C\CCCCCCCCCC(=O)OC(CC(=O)[O-])C[N+](C)(C)C` (stereo not drawn) [dihomo-linoleoylcarnitine (C20:2)*], for which the Log2FoldChange runs as follows: under setting [2], 0.8074; under setting [1], 0.3896. For `COc1cc(CCC(=O)O)ccc1O` [dihydroferulate], the Log2FoldChange under setting [3] is listed as -0.4344. The compound `COc1cc(CCC(=O)O)ccc1OS(=O)(=O)O` [dihydroferulic acid sulfate] registered a Log2FoldChange under setting [4] of -0.1203. In the case of `O=C1CC(C(=O)O)NC(=O)N1` (stereo not drawn) [dihydroorotate], the Log2FoldChange under setting [2] is on record as 0.5361. With `CN(C)CC(=O)O` [dimethylglycine], the Log2FoldChange under setting [1] is listed as -0.08927. For the compound `CCCCC/C=C\C/C=C\CCCCCCCCCCCC(=O)O` [docosadienoate (22:2n6)], under setting [4], the Log2FoldChange is 0.111.

Under setting [2], `O=C(O)CCCCCCCCCCCCCCCCCCCCC(=O)O` [docosadioate (C22-DC)] registered a Log2FoldChange of 0.2388. Turning to `CC/C=C\C/C=C\C/C=C\C/C=C\C/C=C\C/C=C\CCC(=O)O` [docosahexaenoate (DHA; 22:6n3)], the Log2FoldChange is listed as -0.074 under setting [4] and 0.546 under setting [1]. `CC/C=C\C/C=C\C/C=C\C/C=C\C/C=C\C/C=C\CCC(=O)NCCO` [docosahexaenoyl ethanolamide]: under setting [1], the Log2FoldChange is 0.189. The same measure, in the same setting: next, `CC/C=C\C/C=C\C/C=C\C/C=C\C/C=C\C/C=C\CCC(=O)O[C@H](CC(=O)[O-])C[N+](C)(C)C` [docosahexaenoylcarnitine (C22:6)*]: 0.3896. Regarding `CC/C=C\C/C=C\C/C=C\C/C=C\C/C=C\CCCCCC(=O)O` [docosapentaenoate (n3 DPA; 22:5n3)], the Log2FoldChange runs as follows: under setting [3], -0.2345; under setting [1], 0.3674. Compound `CCCCC/C=C\C/C=C\C/C=C\C/C=C\C/C=C\CCC(=O)O` [docosapentaenoate (n6 DPA; 22:5n6)] displayed a Log2FoldChange under setting [1] of 0.6508. For `CCC=CCC=CCC=CCCCCCCCCCCCC(=O)O` [docosatrienoate (22:3n3)], the Log2FoldChange turned out to be 0.02857 under setting [4] and 0.263 under setting [1]. For `O=C(O)CCCCCCCCCCC(=O)O` [dodecanedioate (C12-DC)], the Log2FoldChange under setting [2] is reported as 3.021.

In the case of `NCCc1ccc(O)c(OS(=O)(=O)O)c1` [dopamine 3-O-sulfate], the Log2FoldChange under setting [2] stood at 0.3674. On the same count and under the same terms, next, `CC1=NCC[C@@H](C(=O)O)N1` [ectoine]: 0.8156. With `O=C(O)CCCCCCCCCCCCCCCCCCC(=O)O` [eicosanedioate (C20-DC)], under setting [4], the Log2FoldChange worked out at 0.2016.

`CC/C=C\C/C=C\C/C=C\C/C=C\C/C=C\CCCC(=O)O` [eicosapentaenoate (EPA; 20:5n3)] had a Log2FoldChange under setting [4] of -0.1361. In turn, `O=C(O)[C@H]1O[C@@H](Oc2ccc3c(c2)OC[C@H](c2ccc(O)cc2)C3)[C@H](O)[C@@H](O)[C@@H]1O` [equol glucuronide] displayed a Log2FoldChange under setting [2] of 0.926. Under setting [4], `C[N+](C)(C)[C@@H](Cc1c[nH]c(=S)[nH]1)C(=O)[O-]` [ergothioneine] displayed a Log2FoldChange of -0.074.

Under setting [1], `CCCCCCCC/C=C\CCCCCCCCCCCC(=O)O` [erucate (22:1n9)] came in with a Log2FoldChange of -1.218. Take `OC[C@@H](O)[C@@H](O)CO` [erythritol]: under setting [2], the Log2FoldChange is recorded as 0.3896.

Turning to `O=C(O)[C@H](O)[C@H](O)CO` [erythronate*], the Log2FoldChange is given as 0.1375 under setting [4] and 0.3448 under setting [1]. In turn, `CCO[C@H]1O[C@H](CO)[C@@H](O)[C@H](O)[C@H]1O` [ethyl alpha-glucopyranoside] registered a Log2FoldChange under setting [2] of 0.4222. `CCO[C@@H]1O[C@H](CO)[C@@H](O)[C@H](O)[C@H]1O` [ethyl beta-glucopyranoside]: the Log2FoldChange runs as follows: under setting [2], 0.4957; under setting [1], 0.05658. Under setting [2], `CCC(C(=O)O)C(=O)O` [ethylmalonate] gave a Log2FoldChange of 0.2265.

Compound `COc1cc(/C=C/C(=O)O)ccc1O` [ferulate] displayed a Log2FoldChange (mouse, in vivo) of -0.1047.

The compound `COc1cc(/C=C/C(=O)O)ccc1OS(=O)(=O)O` [ferulic acid 4-sulfate] showed a Log2FoldChange under setting [2] of 0.3219.

For the compound `Cc1cc2nc3c(=O)[nH]c(=O)nc-3n(C[C@H](O)[C@H](O)[C@H](O)COP(=O)(O)OP(=O)(O)OC[C@H]3O[C@@H](n4cnc5c(N)ncnc54)[C@H](O)[C@@H]3O)c2cc1C` [flavin adenine dinucleotide (FAD)], the Log2FoldChange reads like this: under setting [2], 0.3219; under setting [1], -0.3585. `Cc1cc2nc3c(=O)[nH]c(=O)nc-3n(C[C@H](O)[C@H](O)[C@H](O)COP(=O)(O)O)c2cc1C` [flavin mononucleotide (FMN)] yielded a Log2FoldChange under setting [1] of 1.475. `NC=N[C@@H](CCC(=O)O)C(=O)O` [formiminoglutamate] displayed a Log2FoldChange under setting [2] of 0.848. As to `O=C(CO)[C@@H](O)[C@H](O)[C@H](O)CO` [fructose], the Log2FoldChange reads like this: under setting [2], 0.251; under setting [1], -0.2345. In turn, `N[C@@H](CCCCNCC(=O)[C@@H](O)[C@H](O)[C@H](O)CO)C(=O)O` [fructosyllysine] showed a Log2FoldChange under setting [4] of -0.152.

Turning to `OC[C@@H](O)[C@H](O)[C@H](O)[C@@H](O)CO` [galactitol (dulcitol)], the Log2FoldChange under setting [1] was found to be 0.111. On to `NCCCC[C@H](NC(=O)CC[C@H](N)C(=O)O)C(=O)O` [gamma-glutamyl-alpha-lysine], for which the Log2FoldChange runs as follows: under setting [4], -0.1681; under setting [1], 0.1763. Regarding `N[C@@H](CCCCNC(=O)CC[C@H](N)C(=O)O)C(=O)O` [gamma-glutamyl-epsilon-lysine], the Log2FoldChange under setting [1] was 0.2869. Under setting [4], `NC(=O)NCCC[C@H](NC(=O)CC[C@H](N)C(=O)O)C(=O)O` [gamma-glutamylcitrulline*] returned a Log2FoldChange of 0.05658.
